{
  "sequences": {"note": "Sequences of proteins named here, by UniProt entry; tags and fusion partners are left off. A change or cut given only in a name is not applied to a line headed by its entry. A line that says so, or that is headed by a name, gives the form on record, which may keep a tag or linker. Residues count along the entry.", "UniProt D4A5I9": "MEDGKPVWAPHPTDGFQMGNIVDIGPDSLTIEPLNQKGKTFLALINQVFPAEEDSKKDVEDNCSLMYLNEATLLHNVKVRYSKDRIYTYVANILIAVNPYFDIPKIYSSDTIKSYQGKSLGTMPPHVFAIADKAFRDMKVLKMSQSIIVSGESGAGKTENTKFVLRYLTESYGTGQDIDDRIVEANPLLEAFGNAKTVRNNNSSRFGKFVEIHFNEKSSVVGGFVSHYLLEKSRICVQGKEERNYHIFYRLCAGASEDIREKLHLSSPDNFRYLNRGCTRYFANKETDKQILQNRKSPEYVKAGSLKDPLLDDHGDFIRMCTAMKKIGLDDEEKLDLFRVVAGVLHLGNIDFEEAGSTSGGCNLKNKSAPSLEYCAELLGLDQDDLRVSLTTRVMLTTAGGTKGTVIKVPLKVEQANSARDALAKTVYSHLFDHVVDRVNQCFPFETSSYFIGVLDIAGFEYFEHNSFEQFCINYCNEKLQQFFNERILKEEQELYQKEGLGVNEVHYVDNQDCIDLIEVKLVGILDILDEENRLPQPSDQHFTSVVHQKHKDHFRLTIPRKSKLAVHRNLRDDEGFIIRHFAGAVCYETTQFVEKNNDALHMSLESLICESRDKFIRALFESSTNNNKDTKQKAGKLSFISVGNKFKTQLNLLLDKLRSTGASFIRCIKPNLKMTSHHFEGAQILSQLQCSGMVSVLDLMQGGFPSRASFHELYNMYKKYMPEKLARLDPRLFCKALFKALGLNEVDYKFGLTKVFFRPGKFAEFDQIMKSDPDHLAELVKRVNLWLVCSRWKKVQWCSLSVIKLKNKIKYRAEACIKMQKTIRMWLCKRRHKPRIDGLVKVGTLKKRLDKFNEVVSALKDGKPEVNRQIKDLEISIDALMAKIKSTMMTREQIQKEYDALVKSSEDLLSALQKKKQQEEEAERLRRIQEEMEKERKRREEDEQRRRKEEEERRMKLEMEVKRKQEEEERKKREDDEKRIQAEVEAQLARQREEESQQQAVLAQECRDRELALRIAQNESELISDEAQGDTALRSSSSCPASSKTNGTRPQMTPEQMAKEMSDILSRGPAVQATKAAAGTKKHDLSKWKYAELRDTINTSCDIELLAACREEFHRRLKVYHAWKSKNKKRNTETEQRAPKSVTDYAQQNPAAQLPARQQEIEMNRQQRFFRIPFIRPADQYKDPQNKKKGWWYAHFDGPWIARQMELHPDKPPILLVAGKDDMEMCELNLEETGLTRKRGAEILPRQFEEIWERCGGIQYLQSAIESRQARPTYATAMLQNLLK", "MVI C-terminal globular tail domain fused with GST (GST-MVI-GD)": "residues 1046-1285 of D4A5I9", "UniProt O54889": "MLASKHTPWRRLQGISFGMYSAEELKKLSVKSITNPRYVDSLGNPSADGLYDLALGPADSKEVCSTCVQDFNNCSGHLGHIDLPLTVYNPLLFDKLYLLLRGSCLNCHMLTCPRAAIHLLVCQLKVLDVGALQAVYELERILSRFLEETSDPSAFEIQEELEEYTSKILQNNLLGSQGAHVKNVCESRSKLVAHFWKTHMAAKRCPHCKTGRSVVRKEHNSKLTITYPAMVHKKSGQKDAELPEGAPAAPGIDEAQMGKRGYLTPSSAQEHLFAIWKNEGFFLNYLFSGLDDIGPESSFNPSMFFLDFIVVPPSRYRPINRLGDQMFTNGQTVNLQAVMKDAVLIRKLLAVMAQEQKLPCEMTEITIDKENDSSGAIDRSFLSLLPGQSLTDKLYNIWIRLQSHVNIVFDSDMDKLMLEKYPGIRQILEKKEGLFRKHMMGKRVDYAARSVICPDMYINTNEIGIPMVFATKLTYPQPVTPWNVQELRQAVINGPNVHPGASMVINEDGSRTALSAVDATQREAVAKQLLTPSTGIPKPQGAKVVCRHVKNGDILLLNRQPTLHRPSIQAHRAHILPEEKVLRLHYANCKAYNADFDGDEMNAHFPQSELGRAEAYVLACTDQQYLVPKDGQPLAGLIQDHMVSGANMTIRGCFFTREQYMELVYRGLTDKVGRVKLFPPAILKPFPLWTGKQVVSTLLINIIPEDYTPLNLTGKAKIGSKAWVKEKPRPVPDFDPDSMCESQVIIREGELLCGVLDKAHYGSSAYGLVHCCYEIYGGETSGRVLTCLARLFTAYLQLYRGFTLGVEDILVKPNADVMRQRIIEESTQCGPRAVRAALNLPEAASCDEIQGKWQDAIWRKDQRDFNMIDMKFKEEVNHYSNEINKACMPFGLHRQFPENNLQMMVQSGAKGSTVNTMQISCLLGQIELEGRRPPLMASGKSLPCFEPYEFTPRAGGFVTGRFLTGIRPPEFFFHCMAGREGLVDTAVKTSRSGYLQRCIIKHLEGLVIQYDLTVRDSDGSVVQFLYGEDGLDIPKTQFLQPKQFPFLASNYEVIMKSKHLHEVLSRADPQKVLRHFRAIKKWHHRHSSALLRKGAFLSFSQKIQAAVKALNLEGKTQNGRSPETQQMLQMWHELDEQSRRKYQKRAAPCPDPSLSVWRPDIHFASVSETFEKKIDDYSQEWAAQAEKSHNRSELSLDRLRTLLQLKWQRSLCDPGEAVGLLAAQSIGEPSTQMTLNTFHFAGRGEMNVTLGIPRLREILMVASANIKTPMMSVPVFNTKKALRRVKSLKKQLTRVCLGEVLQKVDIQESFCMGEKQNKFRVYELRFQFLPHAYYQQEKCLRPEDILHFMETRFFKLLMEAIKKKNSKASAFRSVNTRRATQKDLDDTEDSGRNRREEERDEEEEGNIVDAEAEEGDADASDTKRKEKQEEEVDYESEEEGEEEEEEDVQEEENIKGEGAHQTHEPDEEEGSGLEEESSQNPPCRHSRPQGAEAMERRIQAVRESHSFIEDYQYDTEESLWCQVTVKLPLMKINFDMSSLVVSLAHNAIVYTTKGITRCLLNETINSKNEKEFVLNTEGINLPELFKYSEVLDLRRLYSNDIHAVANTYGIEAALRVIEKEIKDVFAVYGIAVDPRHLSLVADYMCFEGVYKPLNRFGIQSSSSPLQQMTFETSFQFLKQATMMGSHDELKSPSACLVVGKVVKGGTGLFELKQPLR"},
  "source": "paper PMC11106421",
  "about": "“Myosin VI in the nucleolus of neurosecretory PC12 cells: its involvement in the maintenance of nucleolar structure and ribosome organization” (Frontiers in Physiology, 2024)",
  "molecules": {"B1": {"name": "UBF (upstream binding factor) (natural protein, rat (endogenous in PC12), UniProt P25977 1-764, looked up)", "chain": "MNGEADCPTDLEMAAPKGQDRWSQEDMLTLLECMKNNLPSNDSSKFKTTESHMDWEKVAFKDFSGDMCKLKWVEISNEVRKFRTLTELILDAQEHVKNPYKGKKLKKHPDFPKKPLTPYFRFFMEKRAKYAKLHPEMSNLDLTKILSKKYKELPEKKKMKYIQDFQREKQEFERNLARFREDHPDLIQNAKKSDIPEKPKTPQQLWYTHEKKVYLKVRPDATTKEVKDSLGKQWSQLSDKKRLKWIHKALEQRKEYEEIMRDYIQKHPELNISEEGITKSTLTKAERQLKDKFDGRPTKPPPNSYSLYCAELMANMKDVPSTERMVLCSQQWKLLSQKEKDAYHKKCDQKKKDYEVELLRFLESLPEEEQQRVLGEEKMLNINKKQTTSPASKKPSQEGGKGGSEKPKRPVSAMFIFSEEKRRQLQEERPELSESELTRLLARMWNDLSEKKKAKYKAREAALKAQSERKPGGEREDRGKLPESPKRAEEIWQQSVIGDYLARFKNDRVKALKAMEMTWNNMEKKEKLMWIKKAAEDQKRYERELSEMRAPPAATNSSKKMKFQGEPKKPPMNGYQKFSQELLSNGELNHLPLKERMVEIGSRWQRISQSQKEHYKKLAEEQQRQYKVHLDLWVKSLSPQDRAAYKEYISNKRKNMTKLRGPNPKSSRTTLQSKSESEEDDDEEDDDDDDEEEEEDDENGDSSEDGGDSSESSSEDESEDGDENEDDDDDEDDDEDDDEDEDNESEGSSSSSSSSGDSSDSDSN", "notes": "source: endogenous, PC12 cells (lysate or fixed cells)"}, "B2": {"name": "fibrillarin (natural protein, rat (endogenous in PC12), UniProt P22509 1-327, looked up)", "chain": "MKPGFSPRGGGFGGRGGFGDRGGRGGGRGGRGGFGGGRGGFGGGGRGRGGGGGGFRGRGGGGGRGGGFQSGGGRGRGGGRGGKRGNQSGKNVMVEPHRHEGVFICRGKEDALVTKNLVPGESVYGEKRVSISEGDDKIEYRAWNPFRSKLAAAILGGVDQIHIKPGAKVLYLGAASGTTVSHVSDIVGPDGLVYAVEFSHRSGRDLINLAKKRTNIIPVIEDARHPHKYRMLIAMVDVIFADVAQPDQTRIVALNAHTFLRNGGHFVISIKANCIDSTASAEAVFASEVKKMQQENMKPQEQLTLEPYERDHAVVVGVYRPPPKAKN", "notes": "fibrillarin, endogenous in PC12 cells, detected with a mouse monoclonal anti-fibrillarin antibody; source: endogenous, PC12 cells (lysate or fixed cells)"}, "B3": {"name": "B23 (also termed nucleophosmin, NPM1) (natural protein, rat (endogenous in PC12), UniProt P13084 1-292, looked up)", "chain": "MEDSMDMDMSPLRPQNYLFGCELKADKDYHFKVDNDENEHQLSLRTVSLGAGAKDELHIVEAEAMNYEGSPIKVTLATLKMSVQPTVSLGGFEITPPVVLRLKCGSGPVHISGQHLVAVEEDAESEDEDEEDVKLLGMSGKRSAPGGGNKVPQKKVKLDEDDDEDDEDDEDDEDDDDDDFDEEETEEKVPVKKSVRDTPAKNAQKSNQNGKDLKPSTPRSKGQESFKKQEKTPKTPKGPSSVEDIKAKMQASIEKGGSLPKVEAKFINYVKNCFRMTDQEAIQDLWQWRKSL", "notes": "B23 / nucleophosmin, endogenous in PC12 cells, detected with a mouse monoclonal anti-B23 antibody; source: endogenous, PC12 cells (lysate or fixed cells)"}},
  "key": {"[1]": {"target": "myosin VI (MVI), endogenous in PC12 cells (rat (endogenous in PC12)) (UniProt D4A5I9)", "assay": "proximity ligation; Duolink in situ PLA on fixed PC12 cells, rabbit anti-MVI with mouse monoclonal antibodies to the partner; foci counted per nucleus"}, "[2]": {"target": "myosin VI (MVI), endogenous in PC12 cells (rat (endogenous in PC12)) (UniProt D4A5I9)", "assay": "proximity ligation; Duolink in situ PLA on fixed PC12 cells, rabbit anti-MVI with mouse monoclonal antibodies to the partner; foci counted per nucleus", "remark": "listed apart in the source"}, "[3]": {"target": "myosin VI (MVI), endogenous in PC12 cells (rat (endogenous in PC12)) (UniProt D4A5I9)", "assay": "co-IP; PC12 cell lysate, anti-MVI antibody (non-immunized rabbit IgG as control), A/G agarose beads, 4°C; 50 mM Tris pH 7.5, 150 mM NaCl, 2 mM EGTA, 0.1% Triton X-100, 2 mM MgCl2, 2 mM MgATP; immunoblotting"}, "[4]": {"target": "MVI C-terminal globular tail domain fused with GST (GST-MVI-GD) (rat) (UniProt D4A5I9)", "assay": "pull-down; GST-MVI-GD or GST alone bound to Glutathione Sepharose 4B, incubated 4 h at 4°C with PC12 cell lysate precleared on GST beads; 50 mM Tris pH 7.5, 150 mM NaCl, 0.1% Triton X-100, 1 mM DTT, 2 mM EGTA; immunoblotting; only the target purified"}},
  "note": "No constants are given. Whether binding was seen depends on the method and setting. Binding seen in cells or lysates may run through a third protein. Some results given as binding are weak or reduced against the parent protein; the word gives no strength.",
  "data": [
    {"molecule": "Pol1 (RPA 194) (from UniProt O54889 1-1716)", "values": [
      {"measurement": "binding", "setting": "[1]", "value": "binds"}
    ]},
    {"molecule": "B1", "values": [
      {"measurement": "binding", "setting": "[2]", "value": "binds"},
      {"measurement": "binding", "setting": "[3]", "value": "binds"},
      {"measurement": "binding", "setting": "[4]", "value": "binds"}
    ]},
    {"molecule": "B2", "values": [
      {"measurement": "binding", "setting": "[2]", "value": "binds"},
      {"measurement": "binding", "setting": "[3]", "value": "binds weakly"},
      {"measurement": "binding", "setting": "[4]", "value": "binds weakly"}
    ]},
    {"molecule": "B3", "values": [
      {"measurement": "binding", "setting": "[1]", "value": "binds"},
      {"measurement": "binding", "setting": "[3]", "value": "binds"},
      {"measurement": "binding", "setting": "[4]", "value": "binds"}
    ]}
  ]
}
